Results reported in publication PMC9242521.
No constants are given. Whether binding was seen depends on the method and setting. Binding seen in cells or lysates may run through a third protein. For some assays here: A result given as binding can be weak or reduced; the word gives no strength.

Key:
Test in all cases: co-IP; AGS cells transfected with plasmids for wild type CagA, ΔEPIYA-CagA mutants or PR CagA; lysates immunoprecipitated with CagA antibody, blots for ULF, SIVA1 and MKRN1
[1] = biological target: ΔEPIYA-CagA deletion mutant Δ2 (lacks two EPIYA motifs) (Helicobacter pylori (strain not stated))
[2] = biological target: wild type CagA expressed from plasmid (WT-CagA) (Helicobacter pylori (strain not stated))
[3] = biological target: CagA phosphorylation-deficient mutant (PR CagA) (Helicobacter pylori (strain not stated))
[4] = biological target: ΔEPIYA-CagA deletion mutant Δ3 (lacks three EPIYA motifs) (Helicobacter pylori (strain not stated))

| Binder | binding [1] | binding [2] | binding [3] | binding [4] |
| --- | --- | --- | --- | --- |
| SIVA1 (endogenous) (protein, UniProt O15304 1-175) MPKRSCPFADVAPLQLKVRVSQRELSRGVCAERYSQEVFEKTKRLLFLGAQAYLDHVWDEGCAVVHLPESPKPGPTGAPRAARGQMLIGPDGRLIRSLGQASEADPSGVASIACSSCVRAVDGKAVCGQCERALCGQCVRTCWGCGSVACTLCGLVDCSDMYEKVLCTSCAMFET | binds | binds | no binding | no binding |
| MKRN1 (endogenous) (protein, UniProt Q9UHC7 1-482) MAEAATPGTTATTSGAGAAAATAAAASPTPIPTVTAPSLGAGGGGGGSDGSGGGWTKQVTCRYFMHGVCKEGDNCRYSHDLSDSPYSVVCKYFQRGYCIYGDRCRYEHSKPLKQEEATATELTTKSSLAASSSLSSIVGPLVEMNTGEAESRNSNFATVGAGSEDWVNAIEFVPGQPYCGRTAPSCTEAPLQGSVTKEESEKEQTAVETKKQLCPYAAVGECRYGENCVYLHGDSCDMCGLQVLHPMDAAQRSQHIKSCIEAHEKDMELSFAVQRSKDMVCGICMEVVYEKANPSERRFGILSNCNHTYCLKCIRKWRSAKQFESKIIKSCPECRITSNFVIPSEYWVEEKEEKQKLILKYKEAMSNKACRYFDEGRGSCPFGGNCFYKHAYPDGRREEPQRQKVGTSSRYRAQRRNHFWELIEERENSNPFDNDEEEVVTFELGEMLLMLLAAGGDDELTDSEDEWDLFHDELEDFYDLDL |  | no binding |  |  |
